Source: PubChem BioAssay AID1259415 (National Center for Advancing Translational Sciences (NCATS), 2018)
Out of some 410,000 compounds screened, about 18,000 (4.4%) were called active. Inconclusive results, whose numbers are uncertain, are shown with a selection of clear calls. Rule as the data show it: active = activity change below about -60%; inconclusive = no clear call, values can overlap the other calls; inactive = above about -39%.

experiment: qHTS Assay for inhibitors of the human cytomegalovirus (HCMV); details: HFF cells, HCMV-luciferase reporter, 72 h; at 57.5 µM; active compounds read low
In short: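 Compounds were evaluated in HFFs infected with an HCMV luciferase reporter virus (MOI 1 PFU/cell). Luciferase in lysates collected 72 h post infection served as the replication measure.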
% is scaled to controls: 0 for no effect and ±100 for the full control effect.

| Structure (SMILES) | activity change, negative = inhibition |
| --- | --- |
| Cc1cccc(C(=O)N2CCCCCC2)c1 | inactive: -9.8% |
| Cc1cccc(N2CCN(C(=O)c3ccc4c(c3)N(Cc3cccc(Cl)c3)C(=O)c3ccccc3S4=O)CC2C)c1 (stereo not drawn) | active: -67.2% |
| CCOc1cccc2sc(N3CCN(C(=O)C4CC4)CC3)nc12 | inactive: -12.2% |
| CC(=O)C1=C(C)NC(SCC(=O)Nc2nccs2)=C(C#N)C1c1ccccc1Cl (stereo not drawn) | inconclusive: -45.4% |
| Cc1cc(Nc2cccc([N+](=O)[O-])c2)c2ccccc2n1 | inactive: -5.39% |
| O=C(CSc1nnc(CCc2ccccc2)n1-c1ccc(Cl)cc1)c1ccccc1 | inactive: -34.8% |
| Cc1noc(C)c1S(=O)(=O)N1CCC(C(=O)NC2CCCc3ccccc32)CC1 (stereo not drawn) | inconclusive: -47.6% |
| CC(=O)c1cc(Cl)ccc1OC(=O)c1ccco1 | inactive: 5.45% |
| CCN(CCCNS(=O)(=O)c1cc(-c2cc(C)no2)ccc1C)Cc1ccccc1 | inconclusive: -40.8% |
| Cc1ccc(Cl)cc1N1CCN(C(=O)CCNS(=O)(=O)c2ccc3c(c2)CCN3C(=O)C2CC2)CC1 | inactive: -21.9% |
| C1CCN(CCCNC2C3CC4CC(C3)CC2C4)C1 (stereo not drawn) | active: -84% |
| O=C(Cc1cccs1)N=Nc1c(O)[nH]c2ccc(Br)cc12 | inconclusive: -47.8% |
| CCOc1ccc(NC(=O)c2ccc(F)c(S(=O)(=O)N(CC)Cc3ccccc3)c2)cc1 | active: -97.2% |
| Cc1ccc(S(=O)(=O)N2CCOC23CCN(C(=O)C(=O)NCc2ccccc2)CC3)cc1 | inconclusive: -48.9% |
| O=C(Cn1c2[n+](c3ccc(C(F)(F)F)cc31)CCCCC2)Nc1c(F)cccc1F | inconclusive: -41.1% |
| OCCN1CCN(c2ncnc3c2ncn3[C@H]2CN(Cc3ccc(-c4ccccc4)cc3)C[C@@H](CO)O2)CC1 | inconclusive: -47.7% |
| COc1ccc(Cl)cc1NC(=O)CSc1nc(NS(=O)(=O)c2ccc(C)cc2)cc(=O)[nH]1 | inconclusive: -51.3% |
| CC1CCCCN1C(=O)C1CCN(c2nc(-c3ccccc3)nc3c2CCC3)CC1 (stereo not drawn) | inconclusive: -43.6% |
| COc1ccc(N(Cc2ccccc2)S(=O)(=O)c2cc(C(=O)O)ccc2Cl)cc1 | inconclusive: -48.6% |
| CCOC(=O)N1CCN(C(=O)CSc2ccc3nnc(CCNC(=O)c4ccccc4)n3n2)CC1 | inactive: 16.1% |
| Cc1ccc(-c2cn(-c3cccc(Cl)c3)c(S(=O)(=O)CC(=O)Nc3cccc(C)c3)n2)cc1 | inactive: 69.8% |
| Cc1cccc(NC(=O)c2ccc(CN3CCc4ccccc4C3)cc2)c1C | inconclusive: -40.4% |
| Cc1cc(Br)c(NC(=O)CCl)c(Br)c1 | active: -65.8% |

In another format: two of the compounds above.
Structure (SMILES) | activity change, negative = inhibition
CCN(CCCNS(=O)(=O)c1cc(-c2cc(C)no2)ccc1C)Cc1ccccc1 | inconclusive: -40.8%
OCCN1CCN(c2ncnc3c2ncn3[C@H]2CN(Cc3ccc(-c4ccccc4)cc3)C[C@@H](CO)O2)CC1 | inconclusive: -47.7%
